No constants are given. Whether binding was seen depends on the method and setting. Binding seen in cells or lysates may run through a third protein. For some assays here: Sequences can lack the tags named with a protein.
T1: Myc-tagged Derlin-1 (human (HeLa cDNA)) (UniProt Q9BUN8)
T1 sequence: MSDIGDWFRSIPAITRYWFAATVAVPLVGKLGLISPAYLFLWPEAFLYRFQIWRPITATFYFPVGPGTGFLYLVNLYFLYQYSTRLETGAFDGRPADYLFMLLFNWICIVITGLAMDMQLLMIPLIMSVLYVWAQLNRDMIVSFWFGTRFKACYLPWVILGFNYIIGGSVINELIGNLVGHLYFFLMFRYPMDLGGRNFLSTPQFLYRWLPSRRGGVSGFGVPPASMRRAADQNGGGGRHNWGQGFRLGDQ


Assays:
[1] = target: T1, Myc-tagged Derlin-1 (human (HeLa cDNA)); test: co-IP; HeLa^(FcRn+US11 Q192L) cells (US11 Q192L in place of wild-type US11), transfected with Myc-tagged Derlin-1 for 48 h; anti-FLAG or anti-Myc antibody; western blot
[2] = target: HA-tagged HCMV US11 Q192L (HCMV AD169); test: co-IP; wild-type US11 or US11 Q192L precipitated, TMEM129 detected (Supplementary Fig. 8a); cells and antibodies not told in the text shown

Molecule	binding [1]	binding [2]
HA-tagged HCMV US11 Q192L	no binding	–
endogenous E3 ligase TMEM129 (enzyme, UniProt A0AVI4 1-362) MDSPEVTFTLAYLVFAVCFVFTPNEFHAAGLTVQNLLSGWLGSEDAAFVPFHLRRTAATLLCHSLLPLGYYVGMCLAASEKRLHALSQAPEAWRLFLLLAVTLPSIACILIYYWSRDRWACHPLARTLALYALPQSGWQAVASSVNTEFRRIDKFATGAPGARVIVTDTWVMKVTTYRVHVAQQQDVHLTVTESRQHELSPDSNLPVQLLTIRVASTNPAVQAFDIWLNSTEYGELCEKLRAPIRRAAHVVIHQSLGDLFLETFASLVEVNPAYSVPSSQELEACIGCMQTRASVKLVKTCQEAATGECQQCYCRPMWCLTCMGKWFASRQDPLRPDTWLASRVPCPTCRARFCILDVCTVR	–	no binding

Reference: paper PMC6617459
